Reference: patent publication US20150291692A1
These are yes or no findings as the source states them, for the method shown. Some results given as binding are weak or reduced against the parent protein; the word gives no strength.

Protein sequences, listed by entry. Tags and fused reporters are not part of them. Lines headed by an entry give the natural chain unless they say otherwise; changes in a name come on top. Residues count along the entry.
UniProt P43630, residues 22-455: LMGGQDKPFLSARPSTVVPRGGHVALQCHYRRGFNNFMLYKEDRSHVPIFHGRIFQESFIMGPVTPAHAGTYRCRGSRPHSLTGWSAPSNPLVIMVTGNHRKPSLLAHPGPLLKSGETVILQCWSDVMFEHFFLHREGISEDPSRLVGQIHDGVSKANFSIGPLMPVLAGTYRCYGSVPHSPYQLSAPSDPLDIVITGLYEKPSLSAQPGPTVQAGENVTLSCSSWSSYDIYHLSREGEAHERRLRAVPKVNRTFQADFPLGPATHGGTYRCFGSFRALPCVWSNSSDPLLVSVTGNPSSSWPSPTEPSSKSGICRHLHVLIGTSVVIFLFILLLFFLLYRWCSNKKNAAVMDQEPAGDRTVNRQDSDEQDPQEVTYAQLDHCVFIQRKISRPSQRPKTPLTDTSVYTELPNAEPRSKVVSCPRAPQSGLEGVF

Assays:
[1] = molecular target: KIR3DL2 mutant 5 (P66T) (human) (UniProt P43630); test: flow cytometry on HEK-293T cells transfected with the mutant
[2] = molecular target: KIR3DL2 at the surface of HUT78 Sezary Syndrome cell line (human) (UniProt P43630); test: flow cytometry competition
[3] = molecular target: KIR3DL2 at the surface of HUT78 Sezary Syndrome cell line (human) (UniProt P43630); test: fluoro-microscopy on HUT78 cells, 10 µg/ml antibody, 1H at 4° C.
[4] = molecular target: KIR3DL2 on fresh Sezary Syndrome cells of patients (human) (UniProt P43630); test: flow cytometry on whole blood of Sezary Syndrome patient, hybridoma supernatant + GAM-PE
[5] = molecular target: KIR3DL2 at the surface of HUT78 Sezary Syndrome cell line (human) (UniProt P43630); test: flow cytometry on the HUT78 Sezary cell line (secondary screen)
[6] = molecular target: KIR3DL2 at the surface of HUT78 Sezary Syndrome cell line (human) (UniProt P43630); test: flow cytometry competition on HUT78 cells; naked antibody titrated against 15C11-PE (5 µg/ml)
[7] = molecular target: KIR3DL2 on fresh Sezary Syndrome cells of patients (human) (UniProt P43630); test: flow cytometry of whole blood of a Sezary Syndrome patient, antibody + GaM-PE against CD4
[8] = molecular target: NK cells, including normal KIR3DL2+ NK cells (Homo sapiens) (UniProt P43630); test: as above
[9] = substrate: PNO (Homo sapiens) (UniProt P43630); test: flow cytometry on the PNO Sezary cell line (secondary screen)
[10] = molecular target: KIR3DL2 at the surface of HUT78 Sezary Syndrome cell line (human) (UniProt P43630); test: flow cytometry competition against 15C11-PE
[11] = molecular target: domain 1-2 KIR3DL2 polypeptide on transfected HEK cells (Homo Sapiens) (UniProt P43630); test: flow cytometry on transfected HEK-293T cells, 5 µg/ml antibody
[12] = molecular target: domain 1-2 KIR3DL2 polypeptide on transfected HEK cells (Homo Sapiens) (UniProt P43630); test: flow cytometry on transfected HEK cells (legend of FIG. 2)

Measured: binding

B1: antibody 12B11 (antibody, V domains shown)
VH: QLVQSGPELKNPGETVKISCKASGYTFTNYGMNWVKQAPGKGLKWMGWINTYTGEPTYADDFKGRFAFSLETSASTAYLQINNLKNEDTATYFCAHGPWLAYWGQGTLVTVS
VL: DIKMTQSPSSMYASLGERVTITCKASQDINVYLSWFQQKPGKSPKTLIYRAIRLVDGVPSRFSGSGSGQDYSLTISSLDYEDMGIYYCLQYDELPYTFGGGTKLEIE
binds: [1] | [2] | [3] | [4]

B2: antibody 19H12 (antibody, mouse IgG2b, V domains shown)
VH: QIQLVQSGPELKKPGETVKISCKASGYTFTNFGMNWVKQAPGKGLKWMGWINTYTGEPTYADDFKGRFAFSLETSASTAYLQINNLKNEDMATYFCARNGNFGYYFDYWGQGTTLTVSS
VL: DVLMTQTPLSLPVSLGDQASFSCRSSQNIVHSNGNTYLEWYLQKPGQSPSLLIYKVSNRFSGVPDRFSGSGSGTDFTLKITRVEAEDLGVYYCFQGSHVPFTFGSGTKLEIK
not listed: [2]
binds: all other assays above

B3: antibody 15C11 (antibody, mouse IgG2a, V domains shown)
VH: EVKLEESGGGLVQPGGSMKLSCAASGFTFSDAWMDWVRQSPEKGLEWVAEIRSKANNHATYYAESVKGRFTISRDDSKSSVYLRMNSLRAEDTGIYYCTGGYYPVYWGQGTLVTVSA
VL: DIQMTQSPSSLSASLGGKVTITCKASQDINKNIAWYQHKPGKGPRLLIHYTSTLQPGFPSRFSGSGSGRDYSFSISNLEPEDLATYYCLQYDNLLTFGGGTKLEIK
not listed: [1] | [2] | [10]
binds: all other assays above
